# Reference: doi:10.1101/2021.11.26.470079
# No constants are given. Whether binding was seen depends on the method and setting.
# B1: full-length PcoB (protein, UniProt Q47453 24-296)
# chain: AGSVSADPHAGHDMSAMQMPADENFTEMTSMEPIVTESRTPIPPVTDADRKAAFGNLQGHAIHDSAINYLVLLDQLEWQRSDNTNNFSWSVNSWIGGDTDRIWLKSEGERSNGETEAAEAQLLWGHAVGPWWDLVAGVRQDFRPASARTWAAVGFQGLALYNFESEITGFVSNGGKAALRLGGEYDVLLTNRLILQPSYEVNFYSQDDESRGRGRGLTDTELGLRLRYEIRREFAPYIGVSWNQLYGKTSDMAKREGEKDHQVVFLAGARIWF
# Biological target: full-length PcoB (E. coli) (UniProt Q47453)
# Test: SEC
binder,measurement,value
B1,binding,no binding
